In patent publication US20150204870A1:
Results are given in words; binding and its absence hold for the method and conditions named. Some binding calls cover weakened binding; strength is not graded here.

Chains of the proteins cited; added tags and fusions are not shown. Lines headed by an entry give the natural chain unless they say otherwise; changes in a name come on top.
UniProt Q00022: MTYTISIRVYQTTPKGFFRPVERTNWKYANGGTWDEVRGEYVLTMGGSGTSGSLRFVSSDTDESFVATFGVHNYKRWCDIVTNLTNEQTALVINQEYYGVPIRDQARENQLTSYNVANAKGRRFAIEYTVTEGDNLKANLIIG
UniProt A8NSH3: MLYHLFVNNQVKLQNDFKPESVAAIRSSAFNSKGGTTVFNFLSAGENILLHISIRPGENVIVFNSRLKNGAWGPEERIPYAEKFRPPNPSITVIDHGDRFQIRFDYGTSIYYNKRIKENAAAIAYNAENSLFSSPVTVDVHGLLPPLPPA

T1: podocalyxin (glycoprotein secreted into the culture supernatant of undifferentiated ES/iPS cells) (human) (UniProt O00592)
T1 sequence (looked up): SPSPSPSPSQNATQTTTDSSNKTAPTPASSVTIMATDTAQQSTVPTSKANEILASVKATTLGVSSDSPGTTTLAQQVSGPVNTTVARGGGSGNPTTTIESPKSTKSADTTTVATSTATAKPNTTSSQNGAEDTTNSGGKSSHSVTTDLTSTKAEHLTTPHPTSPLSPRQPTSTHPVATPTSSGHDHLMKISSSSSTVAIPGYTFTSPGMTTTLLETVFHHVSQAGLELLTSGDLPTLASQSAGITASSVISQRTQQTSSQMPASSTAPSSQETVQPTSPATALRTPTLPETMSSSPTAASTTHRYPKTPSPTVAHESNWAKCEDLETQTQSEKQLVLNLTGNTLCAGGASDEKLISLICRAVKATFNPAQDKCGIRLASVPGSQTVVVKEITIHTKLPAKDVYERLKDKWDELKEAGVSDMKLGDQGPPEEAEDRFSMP

B1: rAAL (recombinant Aleuria aurantia lectin) (protein, UniProt P18891 2-313, looked up)
chain: PTEFLYTSKIAAISWAATGGRQQRVYFQDLNGKIREAQRGGDNPWTGGSSQNVIGEAKLFSPLAAVTWKSAQGIQIRVYCVNKDNILSEFVYDGSKWITGQLGSVGVKVGSNSKLAALQWGGSESAPPNIRVYYQKSNGSGSSIHEYVWSGKWTAGASFGSTVPGTGIGATAIGPGRLRIYYQATDNKIREHCWDSNSWYVGGFSASASAGVSIAAISWGSTPNIRVYWQKGREELYEAAYGGSWNTPGQIKDASRPTPSLPDTFIAANSSGNIDISVFFQASGVSLQQWQWISGKGWSIGAVVPTGTPAGW

Legend:
[1] = molecular target: T1, podocalyxin (glycoprotein secreted into the culture supernatant of undifferentiated ES/iPS cells) (human); test: lectin blot of the fraction of ES/iPS culture supernatant bound to rBC2LCN beads
[2] = molecular target: T1, podocalyxin (glycoprotein secreted into the culture supernatant of undifferentiated ES/iPS cells) (human); test: Cy3-labelled lectin overlay on marker captured from iPS culture supernatant by immobilised rBC2LCN
[3] = molecular target: T1, podocalyxin (glycoprotein secreted into the culture supernatant of undifferentiated ES/iPS cells) (human); test: sandwich ELISA, biotinylated rBC2LCN on streptavidin plate, HRP-labelled detection lectin, A450
[4] = molecular target: T1, podocalyxin (glycoprotein secreted into the culture supernatant of undifferentiated ES/iPS cells) (human); test: lectin-lectin sandwich on glass slide, biotinylated rAAL as detection lectin on marker captured by rBC2LCN

Molecule	binding [1]	binding [2]	binding [3]	binding [4]
rABA (recombinant Agaricus bisporus lectin) (from UniProt Q00022 2-143)	binds	binds	binds	
rCGL2 (recombinant Coprinopsis cinerea lectin CGL2) (from UniProt A8NSH3 1-150)		binds	binds	
B1		binds		binds
